Measured values taken from patent publication US9271916B2, “Composition for reducing skin wrinkles including PDE5 inhibitor” (SK Chemicals Co., Ltd., priority 2011, dated 2016).
For at least one compound, name, drawing or mass did not settle the structure.

Tested on: UVB-induced skin wrinkles
Test: Wrinkle reduction in UVB-irradiated hairless mice
Assay type: in vivo
Settings: 0.05%, applied twice then once daily after wrinkle induction
Method: An examination was made as to whether the PDE5 inhibitors can substantially reduce skin wrinkles of animal models. Hairless mice, aged 7 weeks, were irradiated with UVB (290-320 nm, 312 nm) to induce wrinkles. The compound or the control was applied to each mouse and its influence on the induced wrinkles was evaluated. More specifically, the mice were irradiated with 60 mJ/cm^2 (1 minimal […] dose (MED)) for 3 days weekly during the first and second week after wrinkling, 120 mJ/cm^2 (2 MED) for 3 days during the third week after wrinkling, 180 mJ/cm^2 (3 MED) for 3 days during the fourth week after wrinkling, 240 mJ/cm^2 (4 MED) for 3 days weekly during the fifth to eighth week after wrinkling, and 240 mJ/cm^2 (4 MED) for 5 days weekly during the ninth to fifteenth week after wrinkling. During the sixteenth and seventeenth week after wrinkling, about 0.5 ml of squalene-OOH, an oxidation product of squalene by UV irradiation, was applied once using a brush to induce deeper wrinkles. Thereafter, the compound or the control was applied to each mouse twice daily for 14 days.

CC1=C(/C=C/C(C)=C/C=C/C(C)=C/C(=O)O)C(C)(C)CCC1 [retinoic acid]
Wrinkle reduction (skin photographs): Slight wrinkle reduction was observed
